Measured values: the supplement of paper PMC12764529
± gives the half width of the 95% confidence interval. For many entries, trypsin and chymotrypsin gave values far apart.

Experiments:
[1] = folding stability dG unfold from chymotrypsin proteolysis; higher = more stable
Method: (§1)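 Folding stability of de novo designed mini-proteins (<80 aa, no Cys; designed by TrROS, TrMRF, ProteinMPNN and the joint model) was measured by cDNA display proteolysis with trypsin and chymotrypsin. Each protease was used at 11 concentrations in a threefold dilution series plus a no-protease condition. K50 was inferred by Bayesian fitting of sequencing counts, and dG unfold was derived against a sequence-predicted unfolded-state K50 (Tsuboyama et al. method). Sequences shown include variable-length N-terminal GS-type padding (SAGGSAGG...) inside a display construct carrying a PA tag. Rows were kept only if the AF2 dimer inter-PAE was >15, to exclude likely homo-oligomers.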

[2] = folding stability dG unfold from trypsin proteolysis; higher = more stable
Method: as §1

[3] = folding stability dG unfold (combined trypsin and chymotrypsin); higher = more stable
Method: as §1

| Sequence | folding stability dG unfold [1] | folding stability dG unfold [2] | folding stability dG unfold [3] |
| --- | --- | --- | --- |
| SAKVRIVVTDDMVFVRTKDGKVLMFRTREEAEAAAKALFPEDVEIIVLDPSSPEVRKLLEELERLLEGKSAG [r14_235_TrROS_Hall] | 4.73 ± 0.086 kcal/mol | 2.19 ± 0.04 kcal/mol | 4.24 ± 0.11 kcal/mol |
| SAGGSAGGSAGGSATIVIFFKDYVIVIKIKWEFDPDNGKYKYEIEIEIFPMPPGEPAPISAGGSAGGSAGGS [r4_215_TrROS] | 4.14 ± 0.44 kcal/mol | 2.09 ± 0.2 kcal/mol | 3.9 ± 0.53 kcal/mol |
| SAGGSSMLYTIEVELEPVFPPGVRRRFRKTLTLETTPEELAALLAAIRARPPDVRLLRVVVREFPESAGGSA [r2_75_JUSTAS] | 2.72 ± 0.11 kcal/mol | 0.615 ± 0.16 kcal/mol | 2.22 ± 0.14 kcal/mol |
| SAGGSAGGSAGMAPNAPNLRVRVQVFNENGEPIGEIELPAADVEEFARATGLPVRVLEVSSAGGSAGGSAGG [r17_200_TrMRF] | 2.43 ± 0.025 kcal/mol | -0.31 ± 0.21 kcal/mol | 2.01 ± 0.088 kcal/mol |
| SAGGKKKTIKITSVEKVKNKDGSIYYKVKIKYEDGTEKTFVFKSLEEAKKALEALPNVKKVEIEPLPSAGGS [r16_757_TrROS_Hall] | 4.4 ± 0.064 kcal/mol | 1.94 ± 0.071 kcal/mol | 3.95 ± 0.17 kcal/mol |
| SAGGSAGGSKVTLTLPENAKVEIVYDEETGKLYIYIEVDGELYKFTFDKKTNKVTVERFKLKDSAGGSAGGS [r12_368_TrROS_Hall] | 4.82 ± 0.055 kcal/mol | 2.81 ± 0.14 kcal/mol | 4.55 ± 0.13 kcal/mol |
| SAGGSAGGSAKTIRIVMSKEDVDKLIEEAKKKGYKVKVEVVKDKNGKEVYVVAEIELPPKESAGGSAGGSAG [r3_149_TrROS_Hall] | 3.95 ± 0.12 kcal/mol | 1.87 ± 0.069 kcal/mol | 3.58 ± 0.15 kcal/mol |
| SAGGSAGGSAGGRVRPGGRVRLRFRFEAPVYRRDPVSGAWTPEGVGEVEFELEVEVPDESAGGSAGGSAGGS [r10_1115_TrMRF] | 4.26 ± 0.055 kcal/mol | 2.09 ± 0.055 kcal/mol | 3.55 ± 0.093 kcal/mol |
| NNMIEITYRIPGMTVEIWISPDDGTIELEIYNPKNGWPVTITMKVKKIDPENGAIVIDIKIRMPPGAKIPPS [r1_234_TrROS] | 3.98 ± 0.19 kcal/mol | 1.76 ± 0.09 kcal/mol | 2.85 ± 0.42 kcal/mol |
| EPEITEVYPLVIPLDGVPLVINIYKIPETGTYIAVIERFPYEPGGKPINPERIVREFPSLEDVLDFIKALAS [r1_288_TrMRF] | 5.29 ± 0.054 kcal/mol | 3.13 ± 0.062 kcal/mol | 5.2 ± 0.092 kcal/mol |
| SAGGSAGGSAGAETRTLKPGDYWVVSIRDPVTGKVYTFVVKEDEIEVLNASAYPVAVHEGSAGGSAGGSAGG [r11_741_TrMRF] | 2.7 ± 0.034 kcal/mol | 0.648 ± 0.058 kcal/mol | 2.35 ± 0.076 kcal/mol |
| SAGMNVVEISEDPKGYLHVVVKVPPSVSIEEVKEALEKELGLKITEVEVEPTPDGIVIKFTLEIPKEKKSAG [r5_774_JUSTAS] | 4.04 ± 0.13 kcal/mol | 0.415 ± 0.11 kcal/mol | 3.65 ± 0.32 kcal/mol |
| SAGGSAGGSAGEPEKLKPKPKIEVKPLRFTFPVPETGSLVEVEIYEFPDGTVLVRVKFYDSAGGSAGGSAGG [r11_463_TrMRF] | 4.29 ± 0.098 kcal/mol | 1.72 ± 0.079 kcal/mol | 3.87 ± 0.29 kcal/mol |
| SAGGSAKKPKPPKVRIKVEIDGKTYEFEIPAEAIEKIEYDEENKEVTIYLKENGKTFKAKIVEVEPSAGGSA [r15_495_TrROS_Hall] | 3.5 ± 0.036 kcal/mol | 1.44 ± 0.027 kcal/mol | 3.08 ± 0.086 kcal/mol |
| SAGGSAGGSAEKEFEVEIVEVKYNKETNEVEVLIKNKKTGKYYKITFNKNGELKIEEVELKSAGGSAGGSAG [r3_294_TrROS_Hall] | 5.35 ± 0.22 kcal/mol | 2.95 ± 0.2 kcal/mol | 5.3 ± 0.41 kcal/mol |
| SAGSVSVSIEVNEDGTVTITATVTVEVDGKTYTFTATATLKIEPAPPPPPPPKVEYKEVNGKIVEKKVLSAG [r5_169_TrROS_Hall] | 3.86 ± 0.16 kcal/mol | 1.31 ± 0.35 kcal/mol | 3.43 ± 0.72 kcal/mol |

| Sequence | folding stability dG unfold [1] | folding stability dG unfold [2] | folding stability dG unfold [3] |
| --- | --- | --- | --- |
| SFFKNFKIDWKENPNGNFVITFRVGGQPIFTIIFKVVVPPPPVEVPVPDPNGEPRKVRYDPKNGKPETEPSA [r9_343_TrROS] | 4.04 ± 0.13 kcal/mol | 1.33 ± 0.037 kcal/mol | 3.4 ± 0.23 kcal/mol |
| SAGETTPVLTIEEKEITVGDKKYKVTSITFSFPGSLLTLSTVTTPEPTTITITSLYDPVVGTVVTTVAGSAG [r5_316_JUSTAS] | 4.77 ± 0.094 kcal/mol | 2.69 ± 0.14 kcal/mol | 4.49 ± 0.18 kcal/mol |
| SAGGSIYIINPDNGWFVEIDVQPDPDGKYTVKIEIYFMEPEPDPDGNPKWKMQPTEMEITIPPGDPITSAGG [r13_561_TrROS] | 3.09 ± 0.064 kcal/mol | 0.858 ± 0.11 kcal/mol | 2.4 ± 0.17 kcal/mol |
| SAKKVIKFFDSLEELIEAIEEAASKGEDFEVVFRLPDGSVLHIKVEVDPKTNEIKILEAELRPVSDTDLSAG [r14_455_TrMRF] | 3.48 ± 0.069 kcal/mol | 1.35 ± 0.076 kcal/mol | 3.04 ± 0.091 kcal/mol |
| SPALEIARELAEKNNIKDVDVKVEEQPDPDNGRPWYEAEATFTFPGNGKKYQIKIWFWPNGNFQIDIQPYSA [r9_724_TrROS] | 3.64 ± 0.079 kcal/mol | 1.56 ± 0.061 kcal/mol | 3.06 ± 0.27 kcal/mol |
| SPDSPEFKKFLENLEEIEAEIEEIPEHGVVIEKIKLKFKDKELEVVIVTFFDKDGKIIGSLAFINGKLIPKS [r1_274_TrMRF] | 4.94 ± 0.24 kcal/mol | 1.84 ± 0.11 kcal/mol | 4.33 ± 0.29 kcal/mol |
| SAGKKKKKIKVKIIVNGKEIEIEMTLEELKKLVKEGKLEITDVKVEKGEIYIIIKPKPPEVDKKTGKLKSAG [r5_868_TrROS_Hall] | 2.42 ± 0.049 kcal/mol | 0.293 ± 0.12 kcal/mol | 1.9 ± 0.12 kcal/mol |
| SKKVEKKVTLKIEIELPDGYKVEIEVKNGKIEIKIEPVKFYNKDGKEFKTKEEAEKAAKKEGIEITKEDLSA [r9_660_TrROS_Hall] | 3.2 ± 0.077 kcal/mol | 0.225 ± 0.26 kcal/mol | 2.67 ± 0.24 kcal/mol |
| SAGKIKPGETIKVTIKIYNEDGELVKEEKLEFKSLEEAKKAIEELAKKIAEETGKPVKVEVKIEKVKAKSAG [r5_232_TrROS_Hall] | 3.82 ± 0.76 kcal/mol | 1.11 ± 0.25 kcal/mol | 2.32 ± 0.69 kcal/mol |
| SAGGFEFEMTQEYWIPWGWRLEVKWRYYFSPDGNINMYPEIEIEPIPIPPPPEPVPVDPNDPDNPDAKSAGG [r19_12_TrROS] | 4.52 ± 0.08 kcal/mol | 1.69 ± 0.077 kcal/mol | 3.71 ± 0.22 kcal/mol |
| SAGGSAMTIEELKKLFPDKPIVKILDLKPVGDSYVLTVYYPKTGKVEKFVFTSLPPEQIKKIKEDNSAGGSA [r15_830_TrMRF] | 4.14 ± 0.087 kcal/mol | 1.59 ± 0.062 kcal/mol | 3.56 ± 0.11 kcal/mol |
| SAMKIEIEEKDGEKVIKIEMKFKTKDGKEVTMTFEFKLENGEKIEIKIEEGMSLEEILEKLKKALEKAKSAG [r14_618_TrROS_Hall] | 5.37 ± 0.24 kcal/mol | 2.37 ± 0.096 kcal/mol | 5.33 ± 0.43 kcal/mol |
| SEYDWIEIEIFFFIDSPEMANEIADIFEELGFNVEVKVWPYPDMYIVEVTIEIPIPPPPPPPEDPEDKKKSA [r9_863_TrROS] | 4.06 ± 0.41 kcal/mol | 1.15 ± 0.2 kcal/mol | 3.59 ± 0.31 kcal/mol |
| SAGGSAGGSAGGRIHVPNGKTKNFDSPEDFEEELKGDPVDDVSIHDPEGGKEKEIPVKPSAGGSAGGSAGGS [r10_1191_TrROS] | 1.48 ± 0.025 kcal/mol | -0.554 ± 0.093 kcal/mol | 1.01 ± 0.06 kcal/mol |
| SAGGWFTFIIPFPDYLFIFTIEWRWHWDPDTGMLNMDLTISIQIIPLPPPPPPPKPEKDPDGEPKYKSAGGS [r8_46_TrROS] | 5.26 ± 0.21 kcal/mol | 2.71 ± 0.35 kcal/mol | 4.98 ± 0.49 kcal/mol |

Copied from the list:
NNMIEITYRIPGMTVEIWISPDDGTIELEIYNPKNGWPVTITMKVKKIDPENGAIVIDIKIRMPPGAKIPPS [r1_234_TrROS] | folding stability dG unfold [3]: 2.85 ± 0.42 kcal/mol
SAGGSIYIINPDNGWFVEIDVQPDPDGKYTVKIEIYFMEPEPDPDGNPKWKMQPTEMEITIPPGDPITSAGG [r13_561_TrROS] | folding stability dG unfold [3]: 2.4 ± 0.17 kcal/mol
